Results on 60 targets are retold here after the supplement of paper PMC10849652.

By UniProt entry, the sequences of proteins in these tests, tags left out. Where a name states a change or a piece, a line headed by the entry shows the natural chain unless it says otherwise.
UniProt P04921: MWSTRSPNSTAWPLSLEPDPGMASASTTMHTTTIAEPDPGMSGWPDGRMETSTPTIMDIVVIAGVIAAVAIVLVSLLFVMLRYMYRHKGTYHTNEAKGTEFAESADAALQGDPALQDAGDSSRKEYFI
UniProt P51610: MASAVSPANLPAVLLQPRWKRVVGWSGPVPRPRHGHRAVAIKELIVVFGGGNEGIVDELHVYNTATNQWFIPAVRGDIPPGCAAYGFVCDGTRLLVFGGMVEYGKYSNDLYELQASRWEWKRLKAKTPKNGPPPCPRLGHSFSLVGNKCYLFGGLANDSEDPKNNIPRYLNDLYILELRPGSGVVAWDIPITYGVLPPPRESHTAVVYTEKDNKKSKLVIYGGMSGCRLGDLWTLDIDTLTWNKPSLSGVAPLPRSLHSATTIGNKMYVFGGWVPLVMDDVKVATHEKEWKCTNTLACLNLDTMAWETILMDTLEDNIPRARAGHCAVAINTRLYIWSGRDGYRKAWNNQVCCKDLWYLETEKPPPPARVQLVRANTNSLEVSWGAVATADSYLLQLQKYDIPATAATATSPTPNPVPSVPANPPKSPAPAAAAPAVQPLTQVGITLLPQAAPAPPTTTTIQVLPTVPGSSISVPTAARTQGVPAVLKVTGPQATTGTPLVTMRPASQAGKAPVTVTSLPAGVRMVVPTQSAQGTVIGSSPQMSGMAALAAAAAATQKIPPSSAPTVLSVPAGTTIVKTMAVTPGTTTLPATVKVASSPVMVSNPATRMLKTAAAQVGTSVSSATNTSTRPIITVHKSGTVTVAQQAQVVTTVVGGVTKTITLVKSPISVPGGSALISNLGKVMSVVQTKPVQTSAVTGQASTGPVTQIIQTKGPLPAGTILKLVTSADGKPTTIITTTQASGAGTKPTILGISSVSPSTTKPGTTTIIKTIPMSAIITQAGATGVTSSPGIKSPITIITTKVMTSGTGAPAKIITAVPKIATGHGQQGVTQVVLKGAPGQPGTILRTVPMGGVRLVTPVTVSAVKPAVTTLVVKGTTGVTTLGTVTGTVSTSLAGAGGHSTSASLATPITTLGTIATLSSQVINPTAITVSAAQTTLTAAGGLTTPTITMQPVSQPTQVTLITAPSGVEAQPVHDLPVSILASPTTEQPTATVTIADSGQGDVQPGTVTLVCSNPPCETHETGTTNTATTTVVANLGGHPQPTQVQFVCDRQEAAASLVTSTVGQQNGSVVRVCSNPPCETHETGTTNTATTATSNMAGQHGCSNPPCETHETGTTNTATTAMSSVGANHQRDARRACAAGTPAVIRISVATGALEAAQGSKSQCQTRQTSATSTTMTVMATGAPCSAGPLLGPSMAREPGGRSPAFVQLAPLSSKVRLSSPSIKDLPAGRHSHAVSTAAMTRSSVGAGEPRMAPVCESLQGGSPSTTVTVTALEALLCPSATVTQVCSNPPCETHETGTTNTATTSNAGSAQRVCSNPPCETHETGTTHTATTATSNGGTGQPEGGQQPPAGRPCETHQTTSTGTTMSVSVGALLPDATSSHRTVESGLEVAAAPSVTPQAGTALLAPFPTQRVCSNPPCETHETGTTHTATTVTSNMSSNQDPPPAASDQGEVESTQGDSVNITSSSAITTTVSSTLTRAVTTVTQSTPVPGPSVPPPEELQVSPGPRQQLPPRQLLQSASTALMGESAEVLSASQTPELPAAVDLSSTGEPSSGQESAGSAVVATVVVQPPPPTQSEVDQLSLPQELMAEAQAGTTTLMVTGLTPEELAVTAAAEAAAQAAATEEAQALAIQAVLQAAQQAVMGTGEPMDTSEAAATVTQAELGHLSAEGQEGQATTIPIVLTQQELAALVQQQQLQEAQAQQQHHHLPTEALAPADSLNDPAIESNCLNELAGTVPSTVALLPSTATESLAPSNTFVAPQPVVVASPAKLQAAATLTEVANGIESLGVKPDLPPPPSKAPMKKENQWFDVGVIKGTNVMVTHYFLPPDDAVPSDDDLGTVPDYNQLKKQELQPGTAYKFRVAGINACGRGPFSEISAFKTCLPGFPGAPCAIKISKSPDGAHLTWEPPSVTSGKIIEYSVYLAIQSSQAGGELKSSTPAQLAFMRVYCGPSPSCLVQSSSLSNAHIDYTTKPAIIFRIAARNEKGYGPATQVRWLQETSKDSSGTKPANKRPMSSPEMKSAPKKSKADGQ
UniProt Q9Y5Q9: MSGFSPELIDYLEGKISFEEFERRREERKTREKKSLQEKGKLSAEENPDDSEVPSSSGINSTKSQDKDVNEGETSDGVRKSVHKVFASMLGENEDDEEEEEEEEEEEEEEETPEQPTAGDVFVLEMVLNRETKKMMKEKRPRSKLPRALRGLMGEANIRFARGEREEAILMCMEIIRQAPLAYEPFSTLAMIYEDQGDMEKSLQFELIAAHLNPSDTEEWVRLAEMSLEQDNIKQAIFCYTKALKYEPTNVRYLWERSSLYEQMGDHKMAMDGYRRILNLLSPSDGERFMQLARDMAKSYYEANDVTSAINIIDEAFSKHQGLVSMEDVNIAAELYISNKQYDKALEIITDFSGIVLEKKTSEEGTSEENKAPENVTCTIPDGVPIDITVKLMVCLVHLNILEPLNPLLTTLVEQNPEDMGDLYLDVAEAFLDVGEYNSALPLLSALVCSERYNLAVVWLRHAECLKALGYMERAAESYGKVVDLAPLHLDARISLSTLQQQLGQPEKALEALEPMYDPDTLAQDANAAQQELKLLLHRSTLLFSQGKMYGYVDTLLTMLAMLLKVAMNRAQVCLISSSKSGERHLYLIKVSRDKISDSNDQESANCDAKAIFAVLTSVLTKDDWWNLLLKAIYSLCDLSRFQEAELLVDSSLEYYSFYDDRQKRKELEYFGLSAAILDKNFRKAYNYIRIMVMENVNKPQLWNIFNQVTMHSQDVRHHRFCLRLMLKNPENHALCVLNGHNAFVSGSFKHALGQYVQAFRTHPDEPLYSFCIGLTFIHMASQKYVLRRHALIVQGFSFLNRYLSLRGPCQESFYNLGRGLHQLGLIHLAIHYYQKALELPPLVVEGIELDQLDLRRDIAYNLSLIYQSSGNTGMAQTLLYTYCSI
UniProt Q8NG08: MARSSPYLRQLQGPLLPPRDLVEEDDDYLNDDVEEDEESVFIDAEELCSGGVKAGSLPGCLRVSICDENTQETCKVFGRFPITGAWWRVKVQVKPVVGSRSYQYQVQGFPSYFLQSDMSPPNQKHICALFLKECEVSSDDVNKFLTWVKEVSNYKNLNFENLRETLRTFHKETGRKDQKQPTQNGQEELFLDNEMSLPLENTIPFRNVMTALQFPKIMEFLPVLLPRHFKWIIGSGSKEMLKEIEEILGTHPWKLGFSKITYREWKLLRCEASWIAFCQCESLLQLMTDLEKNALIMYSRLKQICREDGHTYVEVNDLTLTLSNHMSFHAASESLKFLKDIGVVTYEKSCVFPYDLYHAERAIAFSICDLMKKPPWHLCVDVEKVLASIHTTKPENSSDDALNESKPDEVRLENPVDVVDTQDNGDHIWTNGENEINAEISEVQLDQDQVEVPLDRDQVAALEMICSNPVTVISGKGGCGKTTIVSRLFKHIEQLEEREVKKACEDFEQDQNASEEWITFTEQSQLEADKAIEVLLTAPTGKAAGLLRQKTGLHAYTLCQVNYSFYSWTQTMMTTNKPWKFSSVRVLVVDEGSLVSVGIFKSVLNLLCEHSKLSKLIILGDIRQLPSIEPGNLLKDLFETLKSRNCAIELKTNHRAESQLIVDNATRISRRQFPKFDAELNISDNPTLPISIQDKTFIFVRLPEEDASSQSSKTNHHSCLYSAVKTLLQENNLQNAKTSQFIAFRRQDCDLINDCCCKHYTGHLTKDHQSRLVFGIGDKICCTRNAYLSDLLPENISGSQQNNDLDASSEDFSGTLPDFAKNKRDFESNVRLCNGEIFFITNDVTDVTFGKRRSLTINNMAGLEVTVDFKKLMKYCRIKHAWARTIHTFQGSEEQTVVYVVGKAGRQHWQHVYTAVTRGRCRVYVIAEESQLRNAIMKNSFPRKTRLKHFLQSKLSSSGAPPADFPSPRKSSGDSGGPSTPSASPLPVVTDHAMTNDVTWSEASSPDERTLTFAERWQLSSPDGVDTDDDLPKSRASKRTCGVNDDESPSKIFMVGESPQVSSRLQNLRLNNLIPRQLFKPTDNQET
UniProt Q9BXW7: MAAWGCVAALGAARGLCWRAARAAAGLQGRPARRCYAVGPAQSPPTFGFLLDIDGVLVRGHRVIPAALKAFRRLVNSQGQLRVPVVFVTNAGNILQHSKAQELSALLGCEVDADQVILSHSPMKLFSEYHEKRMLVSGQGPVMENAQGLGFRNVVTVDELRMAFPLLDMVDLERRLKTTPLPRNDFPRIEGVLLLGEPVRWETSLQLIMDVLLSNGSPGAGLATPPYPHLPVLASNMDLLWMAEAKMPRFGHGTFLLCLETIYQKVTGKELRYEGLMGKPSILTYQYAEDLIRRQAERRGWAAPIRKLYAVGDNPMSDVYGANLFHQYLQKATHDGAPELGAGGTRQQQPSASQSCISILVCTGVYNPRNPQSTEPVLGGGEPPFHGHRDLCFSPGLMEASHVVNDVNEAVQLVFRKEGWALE
UniProt P69891: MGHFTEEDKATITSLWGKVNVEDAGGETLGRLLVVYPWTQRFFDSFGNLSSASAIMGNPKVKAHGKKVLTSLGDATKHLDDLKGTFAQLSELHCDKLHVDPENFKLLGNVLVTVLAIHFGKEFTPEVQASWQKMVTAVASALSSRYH
UniProt Q9P0R6: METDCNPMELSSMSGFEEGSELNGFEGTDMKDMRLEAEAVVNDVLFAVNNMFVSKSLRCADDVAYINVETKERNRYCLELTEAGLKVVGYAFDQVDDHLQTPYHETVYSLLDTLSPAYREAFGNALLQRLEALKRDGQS
UniProt Q6PII5: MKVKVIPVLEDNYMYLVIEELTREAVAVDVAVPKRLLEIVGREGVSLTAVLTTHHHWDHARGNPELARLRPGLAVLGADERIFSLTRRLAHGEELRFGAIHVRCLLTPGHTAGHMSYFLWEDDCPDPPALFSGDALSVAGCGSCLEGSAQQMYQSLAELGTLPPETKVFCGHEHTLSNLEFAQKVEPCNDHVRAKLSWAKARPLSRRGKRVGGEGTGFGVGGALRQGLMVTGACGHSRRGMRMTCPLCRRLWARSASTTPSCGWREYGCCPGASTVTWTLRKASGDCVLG
UniProt P46976: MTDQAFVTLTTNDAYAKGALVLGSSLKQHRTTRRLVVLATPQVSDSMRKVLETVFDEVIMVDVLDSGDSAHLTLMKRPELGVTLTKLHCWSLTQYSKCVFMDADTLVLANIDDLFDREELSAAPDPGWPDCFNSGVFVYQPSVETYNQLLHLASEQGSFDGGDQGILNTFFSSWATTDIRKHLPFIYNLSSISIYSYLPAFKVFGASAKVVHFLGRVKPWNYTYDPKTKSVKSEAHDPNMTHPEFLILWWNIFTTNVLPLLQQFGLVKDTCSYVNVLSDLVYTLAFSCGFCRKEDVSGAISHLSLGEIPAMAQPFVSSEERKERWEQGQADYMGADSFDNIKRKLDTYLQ
UniProt Q8N4P3, whole entry, looked up: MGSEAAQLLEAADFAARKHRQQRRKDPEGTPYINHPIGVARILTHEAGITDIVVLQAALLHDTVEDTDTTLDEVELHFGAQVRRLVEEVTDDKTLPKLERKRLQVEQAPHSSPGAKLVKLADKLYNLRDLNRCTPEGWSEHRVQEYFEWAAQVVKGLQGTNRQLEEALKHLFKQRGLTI
UniProt P02100: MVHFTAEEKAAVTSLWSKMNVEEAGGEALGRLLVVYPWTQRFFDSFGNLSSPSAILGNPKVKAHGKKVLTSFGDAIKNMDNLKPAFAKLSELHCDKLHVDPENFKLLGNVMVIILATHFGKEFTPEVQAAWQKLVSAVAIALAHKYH
UniProt Q8N442: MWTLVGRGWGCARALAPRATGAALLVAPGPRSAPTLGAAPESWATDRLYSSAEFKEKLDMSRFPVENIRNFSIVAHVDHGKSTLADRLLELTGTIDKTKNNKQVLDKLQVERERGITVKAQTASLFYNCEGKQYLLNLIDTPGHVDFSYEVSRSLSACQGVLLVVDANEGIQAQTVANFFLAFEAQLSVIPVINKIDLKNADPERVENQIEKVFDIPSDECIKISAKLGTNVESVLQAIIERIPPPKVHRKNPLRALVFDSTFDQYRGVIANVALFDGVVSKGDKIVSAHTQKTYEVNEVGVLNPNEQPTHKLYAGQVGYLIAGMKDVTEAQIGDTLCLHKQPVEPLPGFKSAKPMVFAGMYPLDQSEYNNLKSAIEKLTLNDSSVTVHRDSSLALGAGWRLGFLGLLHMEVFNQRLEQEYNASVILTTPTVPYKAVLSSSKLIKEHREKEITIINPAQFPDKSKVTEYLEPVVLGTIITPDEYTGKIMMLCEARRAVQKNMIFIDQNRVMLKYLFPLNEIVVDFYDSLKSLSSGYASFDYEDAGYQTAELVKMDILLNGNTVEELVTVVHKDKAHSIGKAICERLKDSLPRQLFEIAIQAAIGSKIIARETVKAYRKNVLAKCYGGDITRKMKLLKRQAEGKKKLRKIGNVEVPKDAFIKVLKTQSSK

The list shows a part of the results.

Compound in the assay: c1cn2cc(-c3ccc4cn[nH]c4c3)nc(Nc3ccc(N4CCOCC4)cc3)c2n1 [entospletinib]
The assay is described as follows: log2 fold change, soluble protein after heating vs DMSO (PISA); higher = thermal stabilisation; K562 cells, 10 uM, 30 min; active = over 0.2 and 3.5 SD of the protein, either way, in both replicates (recomputed). The method, boiled down: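 K562 cells at 2×10^6 cells/mL were exposed to 10 μM compound for 30 min, then aliquots were heated for 3 min across 48°C-58°C, pooled, and extracted in PBS containing 0.5% NP-40 at 4°C. The supernatant after 21,000xg for 90 min was taken as soluble protein and measured by TMTpro 16plex LC-MS/MS with channel sums equalised. Thermal stability is reported relative to control samples, with values from duplicates. Fold changes are given on a log2 scale.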

As to H4C1 (UniProt P62805), the log2 fold change was inactive: 0.054.

HDLBP (UniProt Q00341): the log2 fold change was inactive: 0.195.

On to GYPC (UniProt P04921), for which the log2 fold change was inactive: -0.062.

GTF2H1 (UniProt P32780): the log2 fold change is inactive: -0.124.

As to HCFC1 (UniProt P51610), the log2 fold change was inactive: 0.206.

As to H1-4 (UniProt P10412), the log2 fold change is inactive: 0.156.

Take HERC4 (UniProt Q5GLZ8): the log2 fold change was inactive: -0.018.

As for GTF3C3 (UniProt Q9Y5Q9), the log2 fold change is inactive: 0.051.

Consider HDGFL3 (UniProt Q9Y3E1), for which the log2 fold change is inactive: -0.004.

As for HELB (UniProt Q8NG08), the log2 fold change was inactive: 0.017.

In the case of HGF (UniProt P14210), the log2 fold change was inactive: 0.052.

For the target HEATR6 (UniProt Q6AI08), the log2 fold change is inactive: 0.034.

For the target GTPBP1 (UniProt O00178), the log2 fold change is inactive: -0.044.

Take GSTZ1 (UniProt G3V4T6): the log2 fold change is inactive: 0.001.

Regarding HELQ (UniProt Q8TDG4), the log2 fold change was inactive: 0.036.

For HEBP2 (UniProt Q9Y5Z4), the log2 fold change was inactive: 0.012.

Take HDHD5 (UniProt Q9BXW7): the log2 fold change was inactive: -0.047.

Turning to HBG1 (UniProt P69891), the log2 fold change is inactive: -0.033.

As for GSTCD (UniProt Q8NEC7), the log2 fold change was inactive: 0.079.

Take GTPBP3 isoform 2 (UniProt Q969Y2): the log2 fold change is inactive: 0.064.

Consider H3-2 (UniProt Q5TEC6), for which the log2 fold change is inactive: 0.264.

With GSPT2 (UniProt Q8IYD1), the log2 fold change was inactive: -0.034.

In the case of HEATR5A (UniProt Q86XA9), the log2 fold change is inactive: 0.11.

For the target GSKIP (UniProt Q9P0R6), the log2 fold change is inactive: 0.028.

On to HAGH (UniProt Q16775), for which the log2 fold change is inactive: 0.018.

In the case of HAUS5 (UniProt O94927), the log2 fold change is inactive: -0.017.

HEBP1 (UniProt Q9NRV9): the log2 fold change is inactive: 0.215.

For HBB (UniProt P68871), the log2 fold change is inactive: 0.548.

With GTF2F1 (UniProt P35269), the log2 fold change was inactive: -0.009.

As for GSS (UniProt P48637), the log2 fold change is inactive: -0.022.

As for GTF2H4 (UniProt Q92759), the log2 fold change was inactive: 0.261.

Turning to HERC2 (UniProt O95714), the log2 fold change was inactive: 0.065.

With HAL (UniProt P42357), the log2 fold change was inactive: -0.102.

In the case of HDGF (UniProt P51858), the log2 fold change is inactive: -0.012.

On to HACL1 (UniProt Q9UJ83), for which the log2 fold change was inactive: 0.028.

For the target H1-5 (UniProt P16401), the log2 fold change is inactive: 0.035.

On to HDHD3 (UniProt Q9BSH5), for which the log2 fold change was inactive: 0.035.

On to HAGHL (UniProt Q6PII5), for which the log2 fold change was inactive: 0.038.

GTF3C1 (UniProt Q12789): the log2 fold change is inactive: -0.188.

On to HEPH isoform 3 (UniProt Q9BQS7), for which the log2 fold change is inactive: 0.026.

As for HAUS2 (UniProt Q9NVX0), the log2 fold change was inactive: -0.278.

For GTPBP2 (UniProt Q9BX10), the log2 fold change was inactive: 0.008.

For GYG1 (UniProt P46976), the log2 fold change was active: 0.643.

Take HAUS6 (UniProt Q7Z4H7): the log2 fold change is inactive: 0.15.

Take HBD (UniProt P02042): the log2 fold change was inactive: 0.111.

Turning to HDDC3 (UniProt Q8N4P3), the log2 fold change is inactive: 0.046.

As to HBE1 (UniProt P02100), the log2 fold change is inactive: 0.038.

As for HELZ (UniProt P42694), the log2 fold change is inactive: 0.077.

As for H1-2 (UniProt P16403), the log2 fold change is inactive: 0.091.

Turning to GTPBP10 (UniProt A4D1E9), the log2 fold change was inactive: -0.04.

Consider GSN (UniProt P06396), for which the log2 fold change was inactive: 0.066.

For HBG2 (UniProt P69892), the log2 fold change is inactive: -0.079.

GXYLT1 (UniProt Q4G148): the log2 fold change is inactive: -0.042.

GTF3C6 (UniProt Q969F1): the log2 fold change is inactive: 0.027.

For the target HCCS (UniProt P53701), the log2 fold change was inactive: 0.063.

HCFC1 isoform 4 (UniProt P51610): the log2 fold change is inactive: -0.05.

With GUF1 (UniProt Q8N442), the log2 fold change was inactive: 0.213.

As to GSTM2 (UniProt P28161), the log2 fold change was inactive: 0.074.

H2AFY (UniProt O75367): the log2 fold change is inactive: 0.185.

For HDAC5 isoform 3 (UniProt Q9UQL6), the log2 fold change is inactive: -0.136.
